This is one part of the list.
Key:
Assay in all cases: log2 fold change, soluble protein after heating vs DMSO (PISA); higher = thermal stabilisation; K562 lysate, 10 uM; active = over 0.2 and 3.5 SD of the protein, either way, in both replicates (recomputed)
[1] = compound: C1=CC2=NC=CN=C2C=C1/C=C/3\C(=O)NC(=O)S3
Method in brief: (§1)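 Values give the log-two fold change in thermal stability against solvent controls, from duplicates. Crude K562 extract at 1 mg/mL protein, made by dounce homogenisation in PBS pH 7.4 with 1 mM MgCl2, was treated with 10 μM compound for 30 min. After 3 min heating across 48°C-58°C, aliquots were pooled, adjusted to 0.5% NP-40 at 4°C and centrifuged at 21,000xg for 90 min. The supernatant was measured by TMTpro 16plex LC-MS/MS with channel sums equalised.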

By UniProt entry, the sequences of proteins in these tests, tags left out. Where a name states a change or a piece, a line headed by the entry shows the natural chain unless it says otherwise.
UniProt Q14773: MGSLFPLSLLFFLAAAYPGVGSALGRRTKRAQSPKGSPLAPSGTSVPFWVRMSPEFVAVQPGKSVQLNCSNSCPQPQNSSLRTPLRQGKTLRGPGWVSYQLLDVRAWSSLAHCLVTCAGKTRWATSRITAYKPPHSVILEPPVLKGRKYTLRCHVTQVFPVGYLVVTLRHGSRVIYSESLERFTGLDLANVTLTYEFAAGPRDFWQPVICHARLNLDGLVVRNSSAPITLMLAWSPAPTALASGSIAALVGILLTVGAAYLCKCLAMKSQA
UniProt Q86VF2: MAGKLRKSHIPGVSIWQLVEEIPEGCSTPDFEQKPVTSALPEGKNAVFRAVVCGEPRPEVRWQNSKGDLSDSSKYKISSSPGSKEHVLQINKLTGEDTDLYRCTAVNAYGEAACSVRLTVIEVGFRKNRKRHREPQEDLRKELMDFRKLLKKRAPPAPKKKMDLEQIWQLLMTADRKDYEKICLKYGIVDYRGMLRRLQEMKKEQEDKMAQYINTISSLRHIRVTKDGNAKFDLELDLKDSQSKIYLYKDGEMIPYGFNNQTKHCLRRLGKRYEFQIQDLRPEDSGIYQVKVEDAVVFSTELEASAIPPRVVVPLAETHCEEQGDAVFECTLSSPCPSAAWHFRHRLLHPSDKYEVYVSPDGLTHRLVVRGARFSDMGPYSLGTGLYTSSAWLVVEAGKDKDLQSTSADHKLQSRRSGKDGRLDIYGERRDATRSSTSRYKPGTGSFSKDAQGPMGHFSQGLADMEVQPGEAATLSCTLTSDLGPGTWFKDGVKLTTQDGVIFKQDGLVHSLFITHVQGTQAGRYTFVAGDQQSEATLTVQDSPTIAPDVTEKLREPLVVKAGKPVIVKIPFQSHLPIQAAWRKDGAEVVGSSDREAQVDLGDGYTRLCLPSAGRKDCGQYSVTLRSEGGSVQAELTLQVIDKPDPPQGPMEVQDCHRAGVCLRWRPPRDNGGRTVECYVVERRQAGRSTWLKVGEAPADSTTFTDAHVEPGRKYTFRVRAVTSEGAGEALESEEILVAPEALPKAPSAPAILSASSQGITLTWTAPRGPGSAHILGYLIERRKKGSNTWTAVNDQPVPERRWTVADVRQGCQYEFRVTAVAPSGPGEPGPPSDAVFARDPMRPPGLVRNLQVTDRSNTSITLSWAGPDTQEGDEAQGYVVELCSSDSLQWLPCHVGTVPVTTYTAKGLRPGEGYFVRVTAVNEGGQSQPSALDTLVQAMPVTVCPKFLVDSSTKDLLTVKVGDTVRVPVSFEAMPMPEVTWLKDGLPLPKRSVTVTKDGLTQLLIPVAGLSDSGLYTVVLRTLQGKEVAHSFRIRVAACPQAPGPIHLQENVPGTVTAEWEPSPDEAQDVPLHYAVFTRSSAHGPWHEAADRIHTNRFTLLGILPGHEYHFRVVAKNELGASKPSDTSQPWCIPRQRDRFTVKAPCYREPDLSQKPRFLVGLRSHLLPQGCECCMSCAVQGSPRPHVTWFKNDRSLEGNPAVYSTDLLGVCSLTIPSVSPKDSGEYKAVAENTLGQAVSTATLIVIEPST
UniProt Q6PI98, whole entry, looked up: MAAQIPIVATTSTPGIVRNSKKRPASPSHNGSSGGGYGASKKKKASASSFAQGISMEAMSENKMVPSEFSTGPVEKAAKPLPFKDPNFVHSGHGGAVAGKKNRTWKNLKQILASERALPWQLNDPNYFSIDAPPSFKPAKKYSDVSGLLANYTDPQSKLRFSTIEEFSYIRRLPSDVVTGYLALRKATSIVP
UniProt Q9NQC8: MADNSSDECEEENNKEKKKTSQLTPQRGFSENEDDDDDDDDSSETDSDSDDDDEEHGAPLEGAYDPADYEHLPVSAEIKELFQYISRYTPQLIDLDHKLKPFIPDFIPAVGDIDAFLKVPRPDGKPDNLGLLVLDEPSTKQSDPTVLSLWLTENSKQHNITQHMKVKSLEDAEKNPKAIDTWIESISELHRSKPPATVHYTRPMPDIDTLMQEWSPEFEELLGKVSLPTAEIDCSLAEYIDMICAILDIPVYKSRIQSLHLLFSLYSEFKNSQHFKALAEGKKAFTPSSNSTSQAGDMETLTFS
UniProt P83110, whole entry, looked up: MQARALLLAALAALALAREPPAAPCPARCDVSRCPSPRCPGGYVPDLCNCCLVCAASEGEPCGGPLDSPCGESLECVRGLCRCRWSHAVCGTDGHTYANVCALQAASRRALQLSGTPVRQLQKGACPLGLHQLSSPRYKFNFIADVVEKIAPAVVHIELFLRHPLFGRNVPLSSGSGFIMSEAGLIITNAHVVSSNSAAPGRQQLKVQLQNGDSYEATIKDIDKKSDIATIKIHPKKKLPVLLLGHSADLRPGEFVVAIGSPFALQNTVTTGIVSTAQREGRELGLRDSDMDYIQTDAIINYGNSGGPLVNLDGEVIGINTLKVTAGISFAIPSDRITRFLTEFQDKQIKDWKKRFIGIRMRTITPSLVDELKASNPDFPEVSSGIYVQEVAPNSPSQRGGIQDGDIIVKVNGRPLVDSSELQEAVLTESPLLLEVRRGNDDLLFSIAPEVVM
UniProt Q9UNL4, whole entry, looked up: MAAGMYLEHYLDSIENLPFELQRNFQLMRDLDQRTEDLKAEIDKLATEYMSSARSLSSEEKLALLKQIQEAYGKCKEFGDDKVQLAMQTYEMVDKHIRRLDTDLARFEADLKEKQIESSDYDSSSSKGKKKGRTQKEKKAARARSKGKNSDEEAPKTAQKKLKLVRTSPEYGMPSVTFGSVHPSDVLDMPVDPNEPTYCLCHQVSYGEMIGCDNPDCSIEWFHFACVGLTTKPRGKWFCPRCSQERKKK
UniProt P01860, whole entry, looked up: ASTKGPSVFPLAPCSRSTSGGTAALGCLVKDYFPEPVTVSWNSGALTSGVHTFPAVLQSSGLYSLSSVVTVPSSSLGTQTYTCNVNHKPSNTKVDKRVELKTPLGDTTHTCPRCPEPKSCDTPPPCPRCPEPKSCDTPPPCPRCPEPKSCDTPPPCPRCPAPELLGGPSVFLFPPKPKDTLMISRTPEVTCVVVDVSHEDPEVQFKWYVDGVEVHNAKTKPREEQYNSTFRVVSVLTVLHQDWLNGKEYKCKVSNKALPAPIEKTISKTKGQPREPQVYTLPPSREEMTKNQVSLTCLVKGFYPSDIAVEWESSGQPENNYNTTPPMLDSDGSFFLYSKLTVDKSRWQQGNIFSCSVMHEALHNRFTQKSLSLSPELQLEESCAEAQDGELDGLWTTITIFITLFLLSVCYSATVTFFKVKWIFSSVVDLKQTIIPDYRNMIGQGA
UniProt P78552: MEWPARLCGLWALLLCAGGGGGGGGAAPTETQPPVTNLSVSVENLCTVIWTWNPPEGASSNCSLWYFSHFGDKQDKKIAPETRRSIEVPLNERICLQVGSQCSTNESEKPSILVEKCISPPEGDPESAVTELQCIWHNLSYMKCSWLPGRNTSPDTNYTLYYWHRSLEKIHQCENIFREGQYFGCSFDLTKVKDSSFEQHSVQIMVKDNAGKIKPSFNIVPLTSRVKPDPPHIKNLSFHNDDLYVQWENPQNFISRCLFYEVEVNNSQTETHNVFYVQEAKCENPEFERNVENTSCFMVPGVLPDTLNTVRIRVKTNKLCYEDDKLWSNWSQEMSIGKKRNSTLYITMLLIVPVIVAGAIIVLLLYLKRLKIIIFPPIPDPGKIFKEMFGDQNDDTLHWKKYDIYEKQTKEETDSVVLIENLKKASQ
UniProt Q8WYA0: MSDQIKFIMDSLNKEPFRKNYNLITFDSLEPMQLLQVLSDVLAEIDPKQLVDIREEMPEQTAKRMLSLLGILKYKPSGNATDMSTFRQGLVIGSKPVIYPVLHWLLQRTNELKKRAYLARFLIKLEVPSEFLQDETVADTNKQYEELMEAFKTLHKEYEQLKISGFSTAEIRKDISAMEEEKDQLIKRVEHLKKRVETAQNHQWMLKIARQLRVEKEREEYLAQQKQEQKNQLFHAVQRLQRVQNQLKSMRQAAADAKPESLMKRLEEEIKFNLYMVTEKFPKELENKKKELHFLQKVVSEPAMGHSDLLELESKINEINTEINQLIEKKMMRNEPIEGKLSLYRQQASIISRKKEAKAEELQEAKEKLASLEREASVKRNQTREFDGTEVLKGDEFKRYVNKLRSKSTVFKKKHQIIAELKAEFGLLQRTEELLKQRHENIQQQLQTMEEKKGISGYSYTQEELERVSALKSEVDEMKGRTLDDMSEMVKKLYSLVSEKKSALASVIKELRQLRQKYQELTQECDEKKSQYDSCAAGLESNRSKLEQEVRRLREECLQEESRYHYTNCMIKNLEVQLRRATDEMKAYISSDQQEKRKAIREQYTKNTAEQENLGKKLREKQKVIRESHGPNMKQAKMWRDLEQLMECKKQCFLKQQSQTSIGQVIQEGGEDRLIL
UniProt Q9H160: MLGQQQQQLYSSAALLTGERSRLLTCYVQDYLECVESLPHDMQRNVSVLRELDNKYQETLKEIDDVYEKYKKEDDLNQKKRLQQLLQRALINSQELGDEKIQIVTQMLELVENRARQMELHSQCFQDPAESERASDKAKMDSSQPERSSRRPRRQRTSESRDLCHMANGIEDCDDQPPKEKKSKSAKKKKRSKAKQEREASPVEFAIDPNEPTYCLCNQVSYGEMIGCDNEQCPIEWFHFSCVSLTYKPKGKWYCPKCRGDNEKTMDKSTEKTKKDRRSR
UniProt Q9H2S9: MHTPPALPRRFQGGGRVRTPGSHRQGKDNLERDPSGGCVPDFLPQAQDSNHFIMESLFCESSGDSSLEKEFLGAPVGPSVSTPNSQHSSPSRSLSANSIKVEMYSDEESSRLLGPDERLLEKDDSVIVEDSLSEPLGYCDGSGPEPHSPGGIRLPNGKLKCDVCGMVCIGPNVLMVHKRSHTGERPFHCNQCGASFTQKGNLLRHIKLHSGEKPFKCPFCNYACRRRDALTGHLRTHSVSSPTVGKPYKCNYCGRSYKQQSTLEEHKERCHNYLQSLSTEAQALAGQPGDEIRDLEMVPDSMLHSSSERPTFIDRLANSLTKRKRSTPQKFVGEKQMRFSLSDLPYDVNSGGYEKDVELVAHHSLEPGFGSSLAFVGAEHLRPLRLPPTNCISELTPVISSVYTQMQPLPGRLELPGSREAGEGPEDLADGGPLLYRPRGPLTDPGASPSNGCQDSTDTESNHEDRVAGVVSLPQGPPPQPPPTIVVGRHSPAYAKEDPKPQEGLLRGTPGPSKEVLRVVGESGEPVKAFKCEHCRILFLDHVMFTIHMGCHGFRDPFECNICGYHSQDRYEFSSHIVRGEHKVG

[2] = compound: C1=CC=C(C=C1)C2=NC(=C(N2)C3=CC=NC=C3)C4=CC(=C(C=C4)Cl)O
Method in brief: as §1

[3] = compound: C1CCN(C1)C(=O)NC2=CC=CC(=C2)NC3=NC=C(C(=N3)NCCC4=CN=CN4)Br
Method in brief: as §1

[4] = compound: C1CN(CCC1(CC2=CC=C(C=C2)Cl)N)C3=NC=NC4=C3C=CN4
Method in brief: as §1

IRAK-1-4 Inhibitor I = compound: C1COCCN1CCN2C3=CC=CC=C3N=C2NC(=O)C4=CC(=CC=C4)[N+](=O)[O-] [IRAK-1-4 Inhibitor I]
Method in brief: as §1

ibrutinib = compound: C=CC(=O)N1CCC[C@@H](n2nc(-c3ccc(Oc4ccccc4)cc3)c3c(N)ncnc32)C1 [ibrutinib]
Method in brief: as §1

ralimetinib = compound: CC(C)(C)Cn1c(N)nc2ccc(-c3[nH]c(C(C)(C)C)nc3-c3ccc(F)cc3)nc21 [ralimetinib]
Method in brief: as §1

[5] = compound: CC(C)(O)CC(=O)NCCn1ccc2ncnc(Nc3ccc(Oc4cccc(C(F)(F)F)c4)c(Cl)c3)c21
Method in brief: as §1

[6] = compound: CC1=C(C2=C(C=C1)C(=O)C3=CC=CC=C3N2CCCN)C
Method in brief: as §1

[7] = compound: CC1=C(C=C(C=C1)NC(=O)C2=CC(=CC=C2)N(C)C)NC(=O)C3=CC=C(C=C3)O
Method in brief: as §1

[8] = compound: CC(=O)c1cnc2ccc(-c3cc(Cl)c(O)c(Cl)c3)nc2c1N[C@H]1CC[C@H](CN(C)C)CC1
Method in brief: as §1

[9] = compound: CC1=CC=C(C=C1)SC2=C3C=C(SC3=CN=C2)C(=O)N
Method in brief: as §1

[10] = compound: CC1=C(C(CC(=O)N1)C2=CC=C(C=C2)C(F)(F)F)C(=O)NC3=C(C=C4C(=C3)C=NN4)F
Method in brief: as §1

[11] = compound: CC1=C(C=C(C=C1)NC(=O)C2=CC(=CC=C2)C(C)(C)C#N)NC3=CC4=C(C=C3)N=CN(C4=O)C
Method in brief: as §1

[12] = compound: C/C(=N\NC(=O)C1=CC(=CC=C1)S(=O)(=O)N2CCOCC2)/C3=C(C=CC(=C3)Cl)O
Method in brief: as §1

[13] = compound: C1=CC2=C(C=CC(=C2)/C=C\3/C(=O)NC(=NCC4=CC=CS4)S3)N=C1
Method in brief: as §1

[14] = compound: C1=CC=C2C(=C1)C3=NNC4=CC=CC(=C43)C2=O
Method in brief: as §1

Measured: log2 fold change

ICAM4 (UniProt Q14773)
inactive: [1] -0.1 | [2] -0.145 | [3] -0.082 | [4] 0.035 | IRAK-1-4 Inhibitor I -0.093 | ibrutinib 0.115 | ralimetinib 0.14 | [5] -0.024 | [6] -0.038 | [7] -0.019

HUWE1 (UniProt H0Y659)
inactive: [2] -0.14 | IRAK-1-4 Inhibitor I -0.29 | ralimetinib -0.033 | [5] -0.39 | [6] -0.194 | [7] 0.057

IGFN1 isoform 5 (UniProt Q86VF2)
inactive: [8] -0.269 | [9] 0.092

INO80C isoform 4 (UniProt Q6PI98)
inactive: [1] -0.097 | [2] 0.079 | IRAK-1-4 Inhibitor I 0.08 | ibrutinib 0.1 | [8] -0.228 | ralimetinib 0.065 | [5] -0.099 | [10] 0.005 | [6] 0.011 | [7] -0.188 | [9] 0.163

Taken from the entries so far (two entries):
HUWE1 (UniProt H0Y659)
inactive: [2] -0.14 | IRAK-1-4 Inhibitor I -0.29 | ralimetinib -0.033 | [5] -0.39 | [6] -0.194 | [7] 0.057

IGFN1 isoform 5 (UniProt Q86VF2)
inactive: [8] -0.269 | [9] 0.092

Later entries:

ILF3 (UniProt K7EKJ9)
inactive: [8] 0.007 | [11] 0.029 | [9] -0.04

IFT46 isoform 2 (UniProt Q9NQC8)
inactive: [12] -0.018 | [13] -0.032 | [14] 0.135 | [3] 0.016 | [4] -0.077 | [8] -0.168 | [10] 0.071 | [11] -0.033 | [9] -0.267

HTRA3 (UniProt P83110)
inactive: [10] 0.008

HSPBP1 (UniProt K7EMM7)
inactive: [6] 0.06

ING4 (UniProt Q9UNL4)
inactive: [1] -0.166 | ibrutinib 0.213 | [8] -0.053 | [11] -0.131 | [9] -0.266

IGHG3 (UniProt P01860)
inactive: [1] 0.366 | [2] 0.721 | IRAK-1-4 Inhibitor I -0.196 | ibrutinib -0.442 | [8] -0.072 | ralimetinib -0.102 | [5] 0.487 | [10] 1.78 | [7] 0.092 | [9] 0.089

IL13RA1 (UniProt P78552)
inactive: [11] -0.066

IFT81 (UniProt Q8WYA0)
inactive: [1] 0.105 | [2] 0.005 | IRAK-1-4 Inhibitor I -0.162 | ibrutinib 0.177 | ralimetinib -0.25 | [5] 0.017 | [11] -0.062 | [7] -0.254

ING2 (UniProt Q9H160)
inactive: [3] 0.03 | [4] 0.35 | [11] -0.022

IKZF4 (UniProt Q9H2S9)
inactive: [1] 0.026 | [2] 0.056 | [3] 0.01 | [4] -0.169 | IRAK-1-4 Inhibitor I 0.051 | ibrutinib 0.081 | [8] 0.021 | ralimetinib 0 | [5] -0.062 | [10] 0.039 | [11] -0.001 | [7] 0.052 | [9] -0.072

From the supplement of paper PMC10849652
